PubChem BioAssay AID504444 (National Center for Advancing Translational Sciences (NCATS), 2011)
The campaign covered roughly 360,000 compounds. About 7,500 (2.1%) were called active. This list was built around the results that the source calls inconclusive (neither active nor inactive); the mix of calls is not that of the screen. Calls come from the whole dose curve; as a rule, active = well fitted inhibition curve with a large enough effect; inconclusive = small, poorly fitted or top-dose-only effect, or effect the other way; inactive = flat fitted curve, though single readings scatter. Potencies beside an inconclusive call are fits to weak or partial responses and may not hold up.

Assay: Nrf2 qHTS screen for inhibitors; note: nearly all actives have a fitted effect of over 60% in size
Conditions: A549 ARE-Fluc reporter, luciferase luminescence, 18-24 h; series mostly up to 46 µM
Summary of the method: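 Cells were seeded and rested 2 h, then exposed to compounds for 18-24 h. CellTiter-Fluor was read first as a viability measure. BugLite was added 15 min before the final luminescent read of ARE-luciferase activity in A549 cells.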
Potency is the fitted concentration of half-maximal effect.

SMILES	Potency
Brc1ccc(C2=NC(Cc3ccccc3)CO2)cc1 (configuration not stated)	inconclusive: 23.1 µM [activator, single point]
CN1CCc2c(sc3c2C(=O)NC(c2ccc(OC(=O)c4ccccc4)cc2)N3)C1 (configuration not stated)	inconclusive: 11.6 µM [activator, partial curve, poor fit]
COc1ccc(OC)c(NCc2cccn2-c2nnc(N3CCCCC3)s2)c1	inconclusive: 18.4 µM [activator, partial curve]
COc1ccc2[nH]c(=O)c(CN(Cc3cccs3)S(=O)(=O)c3c(C)ccc4nsnc34)cc2c1	active: 9.2 µM
COc1ccc(C=NNC(=O)NN=Cc2ccc(OC)c(OC)c2)cc1OC	inconclusive: 10.3 µM [activator, partial curve]
Cc1sc2nc(C(C)C)nc(SCC(=O)N3CCN(C(=O)c4ccco4)CC3)c2c1C	inconclusive: 18.4 µM [falling, single point]
COCc1[nH]nc2c1C(c1cc(OC)c(O)c(OC)c1)C(C#N)=C(N)O2 (configuration not stated)	inactive
Cc1cc(C)cc(NC(=S)/N=C(\N)Nc2nc(C)c3ccccc3n2)c1	inconclusive: 20.6 µM [falling, single point]
CC(C)c1nnc(NC(=O)CCC(=O)N2CCN(c3ccccn3)CC2)s1	inactive
Cc1nc2c(-c3ccc(F)cc3)cnn2c2c1CCC2	inconclusive: 16.4 µM [activator, partial curve]
CCOC(=O)c1c(-c2ccccc2)csc1NC(=O)c1cc(=O)c2ccc(C)cc2o1	inconclusive: 9.2 µM [activator, partial curve, poor fit]
Cn1c(SCC(=O)Nc2ccccc2F)nnc1-c1cccs1	inconclusive: 20.6 µM [activator, single point]
CCOC(=O)C1CCN(C(=O)CSc2nccc(C)n2)CC1	inconclusive: 18.4 µM [activator, partial curve, poor fit]
CN(/C=C/C(=C\C=[N+](C)c1ccccc1)OCCCS(=O)(=O)[O-])c1ccccc1	inconclusive: 0.0116 µM [falling, full curve, poor fit]
Cn1c(=O)c2c(nc(Oc3ccc4ccccc4c3)n2C)n(C)c1=O	inconclusive: 8.2 µM [falling, partial curve, poor fit]
CC1=CC(=O)N(c2cccc(C(F)(F)F)c2)C1c1ccc(Cl)cc1 (configuration not stated)	active: 23.1 µM
CC1=Nc2ccccc2/C1=C/c1c(N)n2c(S(=O)(=O)C(C)C)nsc2nc1=O	inconclusive: 1.84 µM [activator, partial curve, poor fit]
O=C(NCc1ccco1)[C@@H]1CSC2c3ccccc3C(=O)N21 (some centres not stated)	inconclusive: 3.66 µM [activator, partial curve]
Cc1ccc(NC(=S)/N=C(\N)Nc2nc(C)c3cc(C)ccc3n2)c(C)c1	inconclusive: 25.9 µM [activator, partial curve, poor fit]
COc1ccc(OCC(=O)Nc2ccccc2C(=O)Nc2ccc(C(=O)O)cc2)cc1	inconclusive: 0.146 µM [activator, full curve, poor fit]
Cc1ccc(COCCN2CCN(S(=O)(=O)c3ccc(C)cc3)CCC2=O)cc1	inconclusive: 29.1 µM [falling, single point]
C#CCn1c(=O)cc(C)c2ccccc21	inconclusive: 20.6 µM [falling, partial curve, poor fit]
O=C(Nc1cccn(Cc2ccc(F)cc2)c1=O)NC1CCCCC1	inconclusive: 18.4 µM [falling, single point]

SMILES	Potency
NS(=O)(=O)c1cccc(NC(=O)COc2ccc([N+](=O)[O-])cc2)c1	inconclusive: 9.2 µM [falling, partial curve]
COc1cc(OC)cc(C(=O)NCCCN2CCN(CCCNC(=O)c3cc(OC)cc(OC)c3)CC2)c1	inconclusive: 5.8 µM [activator, full curve]
Cc1ccc(/C=C2\CCC(C3CCCC3)C2=O)cc1 (configuration not stated)	inconclusive: 4.61 µM [activator, partial curve]
Nc1ccc2c(c1)C(=O)c1ccccc1C2=O	inconclusive: 16.4 µM [activator, partial curve]
O=C(NCc1cccc(F)c1)C1CCCN(C(=O)N2CCOc3ccccc32)C1 (configuration not stated)	inactive
COc1ccccc1NC(=O)c1ccc(NC(=O)C2CC2C)cc1 (configuration not stated)	inconclusive: 29.1 µM [falling, single point]
O=C(Nc1ccc(S(=O)(=O)Nc2ccccc2)cc1)C1COc2ccccc2O1 (configuration not stated)	active: 18.4 µM
CCOC(=O)CN1C=C(c2ccc3ccccc3n2)C(C[N+](=O)[O-])c2ccccc21 (configuration not stated)	inconclusive: 13 µM [activator, partial curve, poor fit]
O=C(N/N=C/c1ccc2c(c1)OCO2)c1cc(-c2ccncc2)nc2ccccc12	inactive
CCOc1cc(/C=C(/NC(C)=O)C(=O)O)cc(Cl)c1OCc1cccc(Br)c1	inactive
CCn1c(SCc2ccc(C)cc2)nnc1C1CCN(S(=O)(=O)c2ccc(OC)cc2)CC1	inconclusive: 25.9 µM [falling, partial curve, poor fit]
Brc1cccc(CNCc2cccs2)c1	inactive
O=c1nc(N2CCCC2)nc(N2CCCC2)[nH]1	inactive
CCCC(=O)N(CCc1ccccc1)Cc1nc2ccccc2c(=O)[nH]1	inconclusive: 25.9 µM [falling, partial curve, poor fit]
COC(=O)c1c(NC(=O)CCCOc2ccc(C(C)(C)C)cc2)sc2c1C(C(=O)OC)CC2 (configuration not stated)	inconclusive: 29.1 µM [falling, single point]
O=C(C1CCCN(Cc2ccccc2)C1)N1CCCCC1 (configuration not stated)	inactive
CCOC(=O)C1=C(O)/C(=C/c2cc(OC)c(OC)c(OC)c2)SC1=Nc1ccc(OC)cc1	inconclusive: 25.9 µM [falling, partial curve, poor fit]
Cc1ccc(CN=c2c([N+](=O)[O-])nn(-c3ccc4c(c3)OCCO4)n2O)cc1	inconclusive: 25.9 µM [falling, single point]
CCc1ccc(CNC(=O)C(C)n2ccc3cc(S(=O)(=O)N4CCCCCC4)ccc32)cc1 (configuration not stated)	inconclusive: 0.184 µM [falling, full curve, poor fit]
CCN(CC)CCNC(=S)NC(=O)c1cn(-c2ccccc2)nc1-c1ccc(OC)cc1	inactive
COc1cc(C(=O)Nc2ccc3c(c2)OCO3)ccc1-n1cnnn1	inconclusive: 14.6 µM [falling, partial curve, poor fit]
O=C(/C=C/c1ccc(F)cc1)NC(=S)NNC(=O)[C@H]1C[C@@H]1c1ccccc1	inconclusive: 29.1 µM [falling, single point]
C=CCN1C2CCCC1CC(NC(=O)Nc1cccc(C(C)=O)c1)C2 (configuration not stated)	inconclusive: 0.0041 µM [activator, full curve, poor fit]

Three compounds out of the list, arranged by molecular weight, high to low:
SMILES	Potency
CCc1ccc(CNC(=O)C(C)n2ccc3cc(S(=O)(=O)N4CCCCCC4)ccc32)cc1 (configuration not stated)	inconclusive: 0.184 µM [falling, full curve, poor fit]
CCN(CC)CCNC(=S)NC(=O)c1cn(-c2ccccc2)nc1-c1ccc(OC)cc1	inactive
O=C(NCc1cccc(F)c1)C1CCCN(C(=O)N2CCOc3ccccc32)C1 (configuration not stated)	inactive

(next part)

SMILES	Potency
Cc1ccc(NC(=O)C2CCN(S(=O)(=O)c3ccc4[nH]c5c(c4c3)CCCCC5)CC2)cc1	inconclusive: 16.4 µM [falling, single point]
CCc1ccc(NCCC(=O)c2ccc(Br)cc2)cc1	inconclusive: 4.11 µM [falling, partial curve, poor fit]
CCOC(=O)C1CCN(C(=O)c2ccc(OCC(=O)Nc3cccc(C(F)(F)F)c3)c(OC)c2)CC1	active: 14.6 µM
COc1cc2c(cc1OC)-c1cc(OCCN3CCOCC3)nc(=O)n1CC2	inactive
N#CCc1cc2ccc3cccc4ccc(c1)c2c34	inactive
O=C(COc1ccccc1Cl)OCc1cc(=O)n2nc(C3CCCCC3)sc2n1	inconclusive: 23.1 µM [activator, single point]
CC(C)(C)OC(=O)N(Cc1ccccc1)Cc1ccc(OCc2cccc(NC(=O)c3ccccc3)c2)cc1	inactive
O=C(OCCCCN1C(=O)c2ccccc2C1=O)c1n[nH]c2ccccc12	inconclusive: 32.6 µM [falling, single point]
O=C(COC(=O)c1ccc(S(=O)(=O)N2CCCC2)cc1)Nc1cccc(Br)c1	inactive
CC1CCN(C(=O)CSc2nnc(CNC(=O)c3ccco3)o2)CC1	inactive
CN(C)/C(=N\S(=O)(=O)c1ccc(Cl)cc1)c1ccc(F)cc1	inactive
CC(=O)N1c2ccccc2C(=O)OC1c1cccnc1 (configuration not stated)	inactive
CCn1c(NCc2cc(Cl)ccc2O)nc2ccccc21	inconclusive: 23.1 µM [falling, partial curve, poor fit]
Cc1ccc(-n2c(N)c(C(=O)NCc3cccnc3)sc2=S)cc1	inconclusive: 35.5 µM [falling, single point]
CCc1ccc(C(=O)c2cnc3ccc(F)cc3c2S(=O)(=O)c2ccccc2)cc1	inconclusive: 3.26 µM [activator, partial curve, poor fit]
CCOC(=O)C1C(=O)C=C(/C=C/c2ccc(N(C)C)cc2)CC1c1ccccc1 (configuration not stated)	inactive
CC1CC(C)CN(S(=O)(=O)c2cc3c4c(c2)CCC(=O)N4CCC3)C1 (configuration not stated)	inconclusive: 23.1 µM [falling, partial curve]
CC(C)OCCCNC(=O)c1cn(C)c2ccc(S(=O)(=O)N3CCCCCC3)cc2c1=O	inconclusive: 29.1 µM [activator, single point]
O=c1cc(C(F)(F)F)[nH]c2ccc(C(F)(F)F)cc12	active: 20.6 µM
COc1ccccc1Cn1cc(C(=O)c2ccc(Cl)cc2)c(=O)c2ccccc21	inconclusive: 29.1 µM [falling, single point]
CC(=O)c1c(C)[nH]c(C(=O)N2CCN(c3cc(Cl)ccc3C)CC2)c1C	inconclusive: 10.3 µM [falling, partial curve, poor fit]

Looked up above.
Under Potency, Nc1ccc2c(c1)C(=O)c1ccccc1C2=O is listed with inconclusive: 16.4 µM [activator, partial curve]
Under Potency, Cn1c(=O)c2c(nc(Oc3ccc4ccccc4c3)n2C)n(C)c1=O is listed with inconclusive: 8.2 µM [falling, partial curve, poor fit]
